Assay results published in PubChem BioAssay AID256 (DTP/NCI, 2004).
The list shows only some results of the screen, not a fair sample: it gathers tests that were run many times, whatever their T/C, doses with no T/C, and many T/C values between a quarter and a half above the control. Further doses and runs are listed elsewhere. T/C is the treated group as % of the vehicle group. Some doses have a count of surviving animals in place of a T/C: the source files T/C as zero there, which appears to mark a toxic dose or a test without result, not a measured value. Some survivor counts are full or nearly so, which does not show that the dose was tolerated: the source hardly ever lists a survival T/C far under the control, and the zero likely stands for such cases as well. Survivors were counted at the toxicity check, usually on the fifth day, unless a day is given; later deaths do not show. Schedule codes are those of the source, read here as Q, the interval in days (D) or hours (H), X, the number of doses. For survival time, the PubChem record calls one and a half times the control and up active, and a quarter to a half above the control has no call in these data; cut-offs in other NCI protocols can differ. Some entries hold several experiments; the values are given in rising order.

Test system: CD2F1 mice, L1210 leukemia ip, survival T/C
Test: NCI In Vivo Anticancer Drug Screen. Data for tumor model L1210 Leukemia (intraperitoneal) in CD2F1 (CDF1) mice
Conditions: higher T/C = longer survival
How it was run: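 Antitumor effect is scored in animals hosting a serially transplanted tumor. Values compare compound-dosed animals against vehicle-only controls as a simple quotient.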

[1] = T/C endpoint: mean survival time, dose: 100.0 mg/kg/injection, schedule: Q04DX002 (ip), vehicle: saline with Tween-80
[2] = T/C endpoint: mean survival time, dose: 400.0 mg/kg/injection, schedule: Q04DX003 (ip), vehicle: saline with Tween-80
[3] = T/C endpoint: mean survival time, dose: 100.0 mg/kg/injection, schedule: Q04DX003 (ip), vehicle: saline with Tween-80
[4] = T/C endpoint: mean survival time, dose: 200.0 mg/kg/injection, schedule: Q04DX003 (ip), vehicle: saline with Tween-80
[5] = T/C endpoint: mean survival time, dose: 400.0 mg/kg/injection, schedule: Q01DX001 (ip), vehicle: saline with Tween-80
[6] = T/C endpoint: mean survival time, dose: 200.0 mg/kg/injection, schedule: Q01DX009 (ip), vehicle: saline with Tween-80
[7] = T/C endpoint: mean survival time, dose: 100.0 mg/kg/injection, schedule: Q01DX001 (ip), vehicle: saline with Tween-80
[8] = T/C endpoint: mean survival time, dose: 200.0 mg/kg/injection, schedule: Q01DX001 (ip), vehicle: saline with Tween-80
[9] = T/C endpoint: mean survival time, dose: 200.0 mg/kg/injection, schedule: Q01DX009 (ip), vehicle: other

For CN[C@H]1CCc2cc(OC)c(OC)c(OC)c2-c2ccc(OC)c(=O)cc21, the T/C (T/C endpoint: mean survival time, dose: 5.0 mg/kg/injection, schedule: Q01DX009 (ip), vehicle: saline) was 125 and 144 % of control, the T/C (T/C endpoint: mean survival time, dose: 5.0 mg/kg/injection, schedule: Q01DX009 (ip), vehicle: water) was 126 % of control and the T/C (T/C endpoint: mean survival time, dose: 10.0 mg/kg/injection, schedule: Q01DX007 (ip), vehicle: saline) was 130 % of control. The T/C (T/C endpoint: mean survival time, dose: 10.0 mg/kg/injection, schedule: Q01DX009 (ip), vehicle: saline) was 130 % of control, the T/C (T/C endpoint: mean survival time, dose: 10.0 mg/kg/injection, schedule: Q03DX003 (ip), vehicle: saline) was 125 % of control and the survivor count (T/C endpoint: mean survival time, dose: 40.0 mg/kg/injection, schedule: Q01DX009 (ip), vehicle: saline) was 6 of 6. For the same compound, the survivor count (T/C endpoint: mean survival time, dose: 60.0 mg/kg/injection, schedule: Q01DX009 (ip), vehicle: saline) was 5 of 6 and the T/C (T/C endpoint: median survival time, dose: 5.0 mg/kg/injection, schedule: Q01DX009 (ip), vehicle: saline) was 127 % of control.
For O=C(CCNC(=O)OCc1ccccc1)NC(CSCc1ccccc1)C(=O)O (stereo unspecified), the survivor count (T/C endpoint: mean survival time, dose: 400.0 mg/kg/injection, schedule: Q01DX005 (ip), vehicle: water) was 1 of 6.
With NCCc1cc(O)c(O)cc1O the survivor count (T/C endpoint: mean survival time, dose: 200.0 mg/kg/injection, schedule: Q01DX009 (ip), vehicle: saline) was 1 of 3.
In the case of CCOP(=S)(N=C=S)OCC, the survivor count [1] was 0 of 3, the survivor count (T/C endpoint: mean survival time, dose: 200.0 mg/kg/injection, schedule: Q04DX002 (ip), vehicle: saline with Tween-80) was 0 of 3 and the survivor count (T/C endpoint: mean survival time, dose: 400.0 mg/kg/injection, schedule: Q04DX002 (ip), vehicle: saline with Tween-80) was 0 of 3.
For COC(=O)CCC(=O)c1cccc(C)c1, the survivor count (T/C endpoint: mean survival time, dose: 100.0 mg/kg/injection, schedule: Q04DX003 (ip), vehicle: acetone) was 6 of 6.
C/C(=N\N=C(/[Se])N1CC2CCC(CC2)C1)c1ccccn1 was tested, and the T/C (T/C endpoint: median survival time, dose: 6.25 mg/kg/injection, schedule: Q01DX009 (ip), vehicle: Klucel (hydroxypropylcellulose) (HPC)) was 125 % of control, the survivor count (T/C endpoint: median survival time, dose: 12.5 mg/kg/injection, schedule: Q01DX009 (ip), vehicle: Klucel (hydroxypropylcellulose) (HPC)) was 6 of 6 and the survivor count (T/C endpoint: median survival time, dose: 25.0 mg/kg/injection, schedule: Q01DX009 (ip), vehicle: Klucel (hydroxypropylcellulose) (HPC)) was 1 of 6.
With CN(C)CCCCc1cn(-c2ccccc2)c2ccccc12 the survivor count (T/C endpoint: mean survival time, dose: 75.0 mg/kg/injection, schedule: Q01DX009 (ip), vehicle: saline) was 1 of 6, the survivor count (T/C endpoint: mean survival time, dose: 115.0 mg/kg/injection, schedule: Q01DX009 (ip), vehicle: saline) was 0 of 6 and the survivor count (T/C endpoint: mean survival time, dose: 170.0 mg/kg/injection, schedule: Q01DX009 (ip), vehicle: saline) was 0 of 6.
For Nc1cc[c]([Hg][Cl])cc1, the survivor count (T/C endpoint: mean survival time, dose: 100.0 mg/kg/injection, schedule: Q04DX003 (ip), vehicle: saline) was 0 of 6, the survivor count (T/C endpoint: mean survival time, dose: 200.0 mg/kg/injection, schedule: Q04DX003 (ip), vehicle: saline) was 0 of 6 and the survivor count (T/C endpoint: mean survival time, dose: 400.0 mg/kg/injection, schedule: Q04DX003 (ip), vehicle: saline) was 0 of 6.
Cc1c2ccccc2c(C)c2c1cc(C(=O)O)c1ccccc12 was tested, and the T/C (T/C endpoint: median survival time, dose: 100.0 mg/kg/injection, schedule: Q01DX009 (ip), vehicle: sodium bicarbonate) was 127 and 128 % of control, the T/C (T/C endpoint: median survival time, dose: 200.0 mg/kg/injection, schedule: Q01DX009 (ip), vehicle: sodium bicarbonate) was 140 % of control and the T/C (T/C endpoint: median survival time, dose: 400.0 mg/kg/injection, schedule: Q01DX009 (ip), vehicle: sodium bicarbonate) was 135 % of control.
In the case of CN(Cc1ccccc1)c1ccc2nc(N)nc(N)c2c1, the survivor count [2] was 2 of 6.
In the case of NC(=O)NNc1ccc([N+](=O)[O-])cc1[N+](=O)[O-], the survivor count [3] was 3 of 6, the survivor count [4] was 3 of 6 and the survivor count [2] was 1 of 6.
In the case of O=C(O)CCn1cccc1, the survivor count [5] was 0 of 6.
In the case of CC1/C(=N/O)C(=O)c2ccccc21 (stereo unspecified), the survivor count [6] was 3 of 6 and the survivor count [5] was 3 of 6.
For CCOc1ccc(/C=C/c2ccc3ccccc3[n+]2C)cc1OCC, the survivor count (T/C endpoint: mean survival time, dose: 50.0 mg/kg/injection, schedule: Q01DX001 (ip), vehicle: saline with Tween-80) was 0 of 6, the survivor count [7] was 0 of 6 and the survivor count [8] was 0 of 6.
With O=C(O)c1cc2c(Cl)cccc2[nH]1 the survivor count [4] was 0 of 6 and the survivor count [2] was 0 of 6.
With COc1cc2cc(c1Cl)N(C)C(=O)CC(OC(=O)C(C)N(C)C(=O)C(C)C)C1(C)OC1C(C)C1CC(O)(NC(=O)O1)C(OC)/C=C/C=C(C)C2 (stereo unspecified) the T/C (T/C endpoint: mean survival time, dose: 20.0 micrograms/kg/injection, schedule: Q01DX009 (ip), vehicle: saline + alcohol) was 125 % of control.
In the case of Cn1cc[n+](C)c1C(c1ccccc1)N1CCCCC1 (stereo unspecified), the survivor count [7] was 0 of 6, the survivor count [8] was 0 of 6 and the survivor count [5] was 0 of 6.
O=C(O)c1ccccc1C(=O)OCC(c1ccccc1)c1ccccc1 was tested, and the survivor count [2] was 0 of 3.
With Cc1nc(Cl)c(C)c(C(=O)O)n1 the survivor count [9] was 1 of 6.
For Oc1c(Cl)cc(Cl)cc1C=NCC1CCC(CN=Cc2cc(Cl)cc(Cl)c2O)CC1 (stereo unspecified), the survivor count [3] was 6 of 6.
O=C(NC/C=C/Br)Nc1cnc2ccccc2c1 was tested, and the survivor count [3] was 6 of 6.
For CC1(C)N=C(N)N=C(N)N1c1cccc(/C=C/C=C/c2cccc([N+](=O)[O-])c2)c1, the survivor count [3] was 1 of 3, the survivor count [4] was 0 of 3 and the survivor count [2] was 0 of 3.
COc1ccccc1C(=O)NS(=O)(=O)c1ccc(Cl)cc1 was tested, and the survivor count (T/C endpoint: mean survival time, dose: 400.0 mg/kg/injection, schedule: Q01DX009 (ip), vehicle: acetone) was 0 of 6.
In the case of COc1ccc(C2=NCCc3cc(OC)c(OC)cc32)cc1OC, the survivor count (T/C endpoint: mean survival time, dose: 50.0 mg/kg/injection, schedule: Q01DX009 (ip), vehicle: other) was 6 of 6, the survivor count (T/C endpoint: mean survival time, dose: 100.0 mg/kg/injection, schedule: Q01DX009 (ip), vehicle: other) was 6 of 6 and the survivor count [9] was 1 of 6.
With COc1cccc2c1C(=O)c1c(O)c3c(c(O)c1C2=O)C[C@@](O)(C(=O)COC(C)=O)C[C@@H]3OC1CC(N)C(O)C(C)O1 (stereo partly specified) the T/C (T/C endpoint: mean survival time, dose: 0.75 mg/kg/injection, schedule: Q01DX009 (ip), vehicle: saline) was 132 % of control, the T/C (T/C endpoint: mean survival time, dose: 0.75 mg/kg/injection, schedule: Q04DX003 (ip), vehicle: saline with Tween-80) was 133 % of control and the T/C (T/C endpoint: mean survival time, dose: 1.0 mg/kg/injection, schedule: Q04DX003 (ip), vehicle: saline sonified) was 146 % of control. For the same compound, the T/C (T/C endpoint: mean survival time, dose: 1.5 mg/kg/injection, schedule: Q01DX009 (ip), vehicle: saline) was 147 % of control, the T/C (T/C endpoint: mean survival time, dose: 1.5 mg/kg/injection, schedule: Q04DX003 (ip), vehicle: saline sonified) was 133 % of control and the T/C (T/C endpoint: mean survival time, dose: 1.5 mg/kg/injection, schedule: Q04DX003 (ip), vehicle: saline with Tween-80) was 148 % of control. For the same compound, the T/C (T/C endpoint: mean survival time, dose: 2.25 mg/kg/injection, schedule: Q04DX003 (ip), vehicle: saline sonified) was 142 % of control.
With COc1cc(Cl)ccc1NC(=O)Nc1cccc(C(=O)O)c1 the survivor count (T/C endpoint: mean survival time, dose: 50.0 mg/kg/injection, schedule: Q01DX009 (ip), vehicle: saline with Tween-80) was 3 of 3.
With N#C/C(=C\C1CCC(Cl)C(Cl)C1)C1CCC([N+](=O)[O-])CC1 (stereo unspecified) the survivor count [1] was 3 of 3.
COC(=O)Nc1ccccc1OS(=O)(=O)N(C)C was tested, and the survivor count [6] was 1 of 6 and the survivor count (T/C endpoint: mean survival time, dose: 400.0 mg/kg/injection, schedule: Q01DX009 (ip), vehicle: saline with Tween-80) was 2 of 6.
For CCN1CCC(C(C)(C)C)CC1, the survivor count (T/C endpoint: mean survival time, dose: 200.0 mg/kg/injection, schedule: Q01DX001 (ip), vehicle: acetone) was 0 of 6 and the survivor count (T/C endpoint: mean survival time, dose: 400.0 mg/kg/injection, schedule: Q01DX001 (ip), vehicle: acetone) was 0 of 6.
For CCCCCCCC/C=C\CCCCCCCC(=O)NCCN(CC)CC, the survivor count (T/C endpoint: mean survival time, dose: 300.0 mg/kg/injection, schedule: Q01DX001 (ip), vehicle: saline) was 2 of 6.
CCOC(=O)C1=C(C)O/C(=C/c2cccc(Cl)c2)C1=O was tested, and the survivor count (T/C endpoint: median survival time, dose: 400.0 mg/kg/injection, schedule: Q01DX009 (ip), vehicle: saline with Tween-80) was 0 of 6.
CCS(=O)(=O)C(CCC#N)(CCC#N)S(=O)(=O)CC was tested, and the survivor count (T/C endpoint: mean survival time, dose: 400.0 mg/kg/injection, schedule: Q01DX001 (ip), vehicle: saline) was 1 of 6.
With CCOC(=O)c1cnc(=O)[nH]c1N the survivor count [2] was 0 of 6.
CCOc1ccc(-n2c(O)c(N=Nc3ccccc3)c(=O)n(-c3ccccc3)c2=S)cc1 was tested, and the survivor count [5] was 0 of 6.
